The supplement of paper PMC9578143, “Small-Molecule Ebselen Binds to YTHDF Proteins Interfering with the Recognition of N^6-Methyladenosine-Modified RNAs” (ACS Pharmacology & Translational Science, 2022)
The list shows a part of the results. Baselines shift from plate to plate; read single values as rough.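 Hits were defined as a z-score below −3.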

biological target: T1, YTHDF1 YTH domain (aa 365-554) (UniProt Q9BYJ9); test: tryptophan fluorescence intensity z-score (mean); higher = higher fluorescence, less quenching (negative = binding / quenching); conditions: 10 µM
T1 sequence (whole entry): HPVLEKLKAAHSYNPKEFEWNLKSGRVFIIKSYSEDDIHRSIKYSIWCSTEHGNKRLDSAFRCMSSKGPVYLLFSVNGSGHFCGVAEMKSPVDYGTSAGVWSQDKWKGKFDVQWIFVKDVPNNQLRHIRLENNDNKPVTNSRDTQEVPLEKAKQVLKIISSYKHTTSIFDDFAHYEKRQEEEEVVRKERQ

Tryptophan fluorescence intensity z-score, inactive:
CC(COc1ccccc1)N(CCCl)Cc1ccccc1 (stereo not drawn) (plate: M 11-12) -0.556
OC[C@H]1O[C@H]([S-])[C@H](O)[C@@H](O)[C@@H]1O.[Au+] (plate: M 1-2) 0.0151
C[C@@H]1CC[C@@]2(OC1)O[C@H]1C[C@H]3[C@@H]4CC[C@H]5C[C@@H](O)CC[C@]5(C)[C@H]4CC[C@]3(C)[C@H]1[C@@H]2C (plate: M 13-14) 0.191
Nc1ccc(S(=O)(=O)Nc2ncccn2)cc1 (plate: M 5-6) -0.127
C#C[C@]1(OC(C)=O)CC[C@H]2[C@@H]3CCC4=C[C@@H](OC(C)=O)CC[C@@H]4[C@H]3CC[C@@]21C (plate: M 11-12) 0.0997
C#C[C@]1(O)CC[C@H]2[C@@H]3CCC4=CC(=O)CC[C@@H]4[C@H]3CC[C@@]21C (plate: M 3-4) -0.553
O=c1c(O)c(-c2ccccc2)oc2ccccc12 (plate: M 17-18) 0.169
CO[C@@]1(NC(=O)C(C(=O)O)c2ccc(O)cc2)C(=O)N2C(C(=O)O)=C(CSc3nnnn3C)CO[C@@H]21 (stereo partly drawn) (plate: M 3-4) -0.0417
COC(=O)C1=C(C)NC(C)=C(C(=O)OC)C1c1ccccc1[N+](=O)[O-] (plate: M 3-4) -0.577
Cc1cc(NC(=O)C2=C(O)c3ccccc3S(=O)(=O)N2C)no1 (plate: M 7-8) 0.0386
Cc1cc(C(C)(C)CC(C)(C)C)ccc1OCCOCC[N+](C)(C)Cc1ccccc1 (plate: M 7-8) -0.888
CN(C)CCCN1c2ccccc2CCc2ccc(Cl)cc21 (plate: M 11-12) -0.517
Cc1cc(OC(=O)c2c(C)cc(O)cc2O)cc(O)c1C(=O)O (plate: M 15-16) 0.454
Clc1ccccc1CN1CCc2sccc2C1 (plate: M 11-12) -0.326
C[C@]12C=CC(=O)C=C1CC[C@@H]1[C@@H]2[C@@H](O)C[C@@]2(C)[C@H]1CC[C@]2(O)C(=O)CO (plate: M 5-6) -0.321
O=C(O)c1cc(=O)c2cccc(O)c2[nH]1 (plate: M 17-18) -0.154
O=c1[nH]cc(F)c(=O)[nH]1 (plate: M 3-4) -0.374
CS(=O)(=O)c1ccc([C@@H](O)[C@@H](CO)NC(=O)C(Cl)Cl)cc1 (plate: M 7-8) 0.421
N=c1ccn2c(n1)O[C@H]1[C@H](O)[C@@H](CO)O[C@H]12 (plate: M 23-24) 0.467
C[C@@H]1O[C@@H](Oc2c(-c3ccc(O)c(O)c3)oc3cc(O)cc(O)c3c2=O)[C@H](O)[C@H](O)[C@H]1O (plate: M 17-18) -0.242
O=c1cc(-c2cc(O)c(O)c(O)c2)oc2cc(O)cc(O)c12 (plate: M 19-20) 0.0979
O=C(O)Cc1ccccc1Nc1c(Cl)cccc1Cl (plate: M 1-2) 0.467
CC[C@@]1(O)C(=O)OCc2c1cc1n(c2=O)Cc2cc3cc(O)ccc3nc2-1 (plate: M 21-22) 0.154
CC(=O)OC/C=C(C)/C=C/C=C(C)/C=C/C1=C(C)CCCC1(C)C (plate: M 23-24) 0.342
NS(=O)(=O)c1cc2c(cc1Cl)N=C(CSCc1ccccc1)NS2(=O)=O (plate: M 1-2) 0.208
O=C1C(CC[S+]([O-])c2ccccc2)C(=O)N(c2ccccc2)N1c1ccccc1 (stereo not drawn) (plate: M 5-6) 0.264
CC(C(=O)O)[C@H]1CCC2C3CC=C4C[C@@H](O)CC[C@]4(C)C3CC[C@@]21C (stereo partly drawn) [3beta-HYDROXY-23,24-BISNORCHOL-5-ENICACID] (plate: M 15-16) 0.342
O=C(O[C@@H]1Cc2c(O)cc(O)cc2O[C@@H]1c1cc(O)c(O)c(O)c1)c1cc(O)c(O)c(O)c1 (plate: M 15-16) -1.17
CC(C)(CO)[C@@H](O)C(=O)NCCCO (plate: M 13-14) 0.863
CNC[C@H](O)c1cccc(O)c1 (plate: M 5-6) -0.0895
CCN(CC)CCNC(=O)c1ccc(NC(C)=O)cc1 (plate: M 11-12) 0.0247
CCCc1nc(C)c2c(O)nc(-c3cc(S(=O)(=O)N4CCN(CC)CC4)ccc3OCC)nn12 (plate: M 11-12) -0.245
Cc1cn(C2CC(N=[N+]=[N-])C(CO)O2)c(=O)[nH]c1=O (stereo not drawn) (plate: M 7-8) 0.251
O=C1C=C2CC3(O)COc4cc(O)ccc4C3=C2C=C1O (stereo not drawn) (plate: M 15-16) 0.00503
N[C@H](Cc1ccccc1)C(=O)O (plate: M 21-22) 0.0941
O=c1c(-c2ccc(O)cc2)coc2cc(O)cc(O)c12 (plate: M 21-22) -0.626
COc1cc2c(cc1OC)-c1cc3ccc(OC)c(OC)c3c[n+]1CC2 (plate: M 19-20) -0.143
COc1cc2c(cc1OC)-c1cc3ccc(OC)c(OC)c3c[n+]1CC2 (plate: M 17-18) -0.232
COC(=O)[C@H]1[C@H]2C[C@@H]3c4[nH]c5cc(OC)ccc5c4CCN3C[C@H]2C[C@@H](OC(=O)c2cc(OC)c(OC)c(OC)c2)[C@@H]1OC (plate: M 5-6) -0.187
CC(=O)C12OC(C)(c3ccccc3)OC1CC1C3CCC4=CC(=O)CCC4(C)C3CCC12C (stereo not drawn) (plate: M 11-12) -0.912
CNC(=C[N+](=O)[O-])NCCSCc1ccc(CN(C)C)o1 (plate: M 7-8) 0.101
CC1(C)C2CC(=O)O[C@@]3(C)C4=CC(=O)O[C@@H](c5ccoc5)[C@]4(C)CCC3[C@@]2(C)C=C[C@H]1O (stereo partly drawn) (plate: M 13-14) 0.0745
O=C(O)P(=O)(O)O (plate: M 7-8) 0.135

Random excerpt: three entries already listed.
Tryptophan fluorescence intensity z-score, inactive:
O=c1[nH]cc(F)c(=O)[nH]1 (plate: M 3-4) -0.374
O=C(O)c1cc(=O)c2cccc(O)c2[nH]1 (plate: M 17-18) -0.154
Clc1ccccc1CN1CCc2sccc2C1 (plate: M 11-12) -0.326
